Measurements taken from the supplement of paper PMC6411743.
± gives the standard deviation of the averaged measurements. This is a selection; strong and weak results do not stand in their true shares. Most entries show no effect beyond the scatter of the controls.

Protein sequences, listed by entry. Tags and fused reporters are not part of them. Lines headed by an entry give the natural chain unless they say otherwise; changes in a name come on top.
UniProt Q9H1U4: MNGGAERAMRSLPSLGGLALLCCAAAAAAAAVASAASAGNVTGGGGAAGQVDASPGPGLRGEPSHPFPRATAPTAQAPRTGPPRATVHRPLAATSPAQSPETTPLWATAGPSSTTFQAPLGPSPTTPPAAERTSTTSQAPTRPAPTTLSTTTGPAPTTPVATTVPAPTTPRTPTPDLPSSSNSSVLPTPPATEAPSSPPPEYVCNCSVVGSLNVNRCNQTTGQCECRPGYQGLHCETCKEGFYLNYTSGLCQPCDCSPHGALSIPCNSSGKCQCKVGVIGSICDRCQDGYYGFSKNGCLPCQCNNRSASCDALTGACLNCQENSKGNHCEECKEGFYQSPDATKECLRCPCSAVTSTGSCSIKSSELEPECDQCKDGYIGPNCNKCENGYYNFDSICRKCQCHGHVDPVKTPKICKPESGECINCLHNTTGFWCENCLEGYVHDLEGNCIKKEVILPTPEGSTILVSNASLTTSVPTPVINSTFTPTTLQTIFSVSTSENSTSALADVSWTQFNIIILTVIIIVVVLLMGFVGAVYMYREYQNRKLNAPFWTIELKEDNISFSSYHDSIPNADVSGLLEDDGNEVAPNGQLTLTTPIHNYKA
UniProt Q9H7D7: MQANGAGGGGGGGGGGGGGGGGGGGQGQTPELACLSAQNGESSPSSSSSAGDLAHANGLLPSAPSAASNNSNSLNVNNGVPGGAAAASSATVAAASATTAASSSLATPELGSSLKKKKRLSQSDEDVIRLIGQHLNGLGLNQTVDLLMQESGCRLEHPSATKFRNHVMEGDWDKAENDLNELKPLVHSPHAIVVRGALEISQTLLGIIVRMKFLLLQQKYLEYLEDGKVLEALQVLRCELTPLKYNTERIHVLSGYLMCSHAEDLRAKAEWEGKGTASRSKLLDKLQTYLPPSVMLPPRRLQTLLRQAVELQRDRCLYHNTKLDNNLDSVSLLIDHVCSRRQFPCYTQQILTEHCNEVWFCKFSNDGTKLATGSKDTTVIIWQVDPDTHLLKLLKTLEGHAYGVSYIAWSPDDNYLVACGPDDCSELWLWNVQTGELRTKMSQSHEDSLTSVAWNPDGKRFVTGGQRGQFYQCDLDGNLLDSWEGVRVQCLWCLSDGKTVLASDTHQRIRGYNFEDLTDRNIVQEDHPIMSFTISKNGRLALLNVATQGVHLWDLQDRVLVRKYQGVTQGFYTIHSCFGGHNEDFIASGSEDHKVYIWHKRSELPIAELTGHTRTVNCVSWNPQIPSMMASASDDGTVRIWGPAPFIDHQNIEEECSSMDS
UniProt Q9H4E7, whole entry: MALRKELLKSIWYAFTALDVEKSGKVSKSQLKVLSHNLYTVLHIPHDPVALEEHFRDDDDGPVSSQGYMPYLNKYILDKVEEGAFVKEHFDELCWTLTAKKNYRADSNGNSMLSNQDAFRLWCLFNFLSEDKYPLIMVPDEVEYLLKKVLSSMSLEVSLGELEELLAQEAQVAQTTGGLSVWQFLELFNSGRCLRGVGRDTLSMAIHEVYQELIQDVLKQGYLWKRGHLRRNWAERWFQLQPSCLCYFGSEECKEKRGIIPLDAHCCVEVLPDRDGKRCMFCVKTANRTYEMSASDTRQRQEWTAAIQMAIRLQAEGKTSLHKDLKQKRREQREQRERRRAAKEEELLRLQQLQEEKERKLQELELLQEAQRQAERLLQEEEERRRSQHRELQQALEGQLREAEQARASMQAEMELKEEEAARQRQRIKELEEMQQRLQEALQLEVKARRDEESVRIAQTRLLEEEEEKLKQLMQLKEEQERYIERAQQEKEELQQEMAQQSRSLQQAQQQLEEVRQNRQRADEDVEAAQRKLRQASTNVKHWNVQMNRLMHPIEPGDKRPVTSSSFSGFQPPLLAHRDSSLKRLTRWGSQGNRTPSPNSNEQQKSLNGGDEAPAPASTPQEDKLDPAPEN
UniProt Q9H8W4: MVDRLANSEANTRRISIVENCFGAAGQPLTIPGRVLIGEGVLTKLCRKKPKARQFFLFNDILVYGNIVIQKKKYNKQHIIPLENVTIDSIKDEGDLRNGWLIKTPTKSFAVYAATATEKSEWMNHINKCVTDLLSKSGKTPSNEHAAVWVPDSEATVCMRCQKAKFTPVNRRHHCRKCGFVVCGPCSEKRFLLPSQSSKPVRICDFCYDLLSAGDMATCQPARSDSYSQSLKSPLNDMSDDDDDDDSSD
UniProt Q9H9H4: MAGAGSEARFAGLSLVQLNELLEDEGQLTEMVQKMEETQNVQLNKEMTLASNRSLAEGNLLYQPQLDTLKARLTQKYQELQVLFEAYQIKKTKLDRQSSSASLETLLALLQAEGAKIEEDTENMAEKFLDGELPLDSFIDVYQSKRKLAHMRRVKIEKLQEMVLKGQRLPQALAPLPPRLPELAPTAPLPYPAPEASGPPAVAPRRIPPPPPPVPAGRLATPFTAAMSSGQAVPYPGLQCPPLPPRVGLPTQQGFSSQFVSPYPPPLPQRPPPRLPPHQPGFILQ
UniProt Q9H3R0: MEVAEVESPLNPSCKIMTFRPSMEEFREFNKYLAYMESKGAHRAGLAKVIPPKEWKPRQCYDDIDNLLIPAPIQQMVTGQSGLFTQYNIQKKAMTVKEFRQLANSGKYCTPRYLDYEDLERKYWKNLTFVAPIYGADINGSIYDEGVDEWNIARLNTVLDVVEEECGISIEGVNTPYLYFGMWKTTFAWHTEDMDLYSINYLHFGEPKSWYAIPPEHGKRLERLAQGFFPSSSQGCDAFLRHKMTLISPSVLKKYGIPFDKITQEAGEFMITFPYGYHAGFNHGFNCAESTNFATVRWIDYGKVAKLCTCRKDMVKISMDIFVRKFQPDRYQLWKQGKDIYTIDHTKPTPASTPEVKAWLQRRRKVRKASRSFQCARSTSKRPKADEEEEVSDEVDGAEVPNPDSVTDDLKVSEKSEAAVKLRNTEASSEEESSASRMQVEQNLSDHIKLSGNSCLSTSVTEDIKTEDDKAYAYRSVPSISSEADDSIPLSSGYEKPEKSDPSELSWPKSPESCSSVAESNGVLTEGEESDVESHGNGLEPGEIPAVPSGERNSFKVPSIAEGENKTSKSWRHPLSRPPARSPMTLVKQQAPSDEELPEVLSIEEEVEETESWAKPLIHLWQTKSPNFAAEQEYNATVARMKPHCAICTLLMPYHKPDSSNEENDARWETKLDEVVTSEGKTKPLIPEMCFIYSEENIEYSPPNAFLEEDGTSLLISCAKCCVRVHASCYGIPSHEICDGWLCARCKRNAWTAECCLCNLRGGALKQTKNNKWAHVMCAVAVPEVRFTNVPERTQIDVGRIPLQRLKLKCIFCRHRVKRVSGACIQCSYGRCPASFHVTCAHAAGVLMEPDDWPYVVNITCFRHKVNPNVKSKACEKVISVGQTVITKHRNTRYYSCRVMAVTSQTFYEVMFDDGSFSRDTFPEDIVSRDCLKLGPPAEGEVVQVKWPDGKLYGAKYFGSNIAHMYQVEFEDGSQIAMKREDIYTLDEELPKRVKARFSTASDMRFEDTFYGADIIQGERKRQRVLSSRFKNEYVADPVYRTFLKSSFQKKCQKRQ
UniProt Q9C0C4, whole entry: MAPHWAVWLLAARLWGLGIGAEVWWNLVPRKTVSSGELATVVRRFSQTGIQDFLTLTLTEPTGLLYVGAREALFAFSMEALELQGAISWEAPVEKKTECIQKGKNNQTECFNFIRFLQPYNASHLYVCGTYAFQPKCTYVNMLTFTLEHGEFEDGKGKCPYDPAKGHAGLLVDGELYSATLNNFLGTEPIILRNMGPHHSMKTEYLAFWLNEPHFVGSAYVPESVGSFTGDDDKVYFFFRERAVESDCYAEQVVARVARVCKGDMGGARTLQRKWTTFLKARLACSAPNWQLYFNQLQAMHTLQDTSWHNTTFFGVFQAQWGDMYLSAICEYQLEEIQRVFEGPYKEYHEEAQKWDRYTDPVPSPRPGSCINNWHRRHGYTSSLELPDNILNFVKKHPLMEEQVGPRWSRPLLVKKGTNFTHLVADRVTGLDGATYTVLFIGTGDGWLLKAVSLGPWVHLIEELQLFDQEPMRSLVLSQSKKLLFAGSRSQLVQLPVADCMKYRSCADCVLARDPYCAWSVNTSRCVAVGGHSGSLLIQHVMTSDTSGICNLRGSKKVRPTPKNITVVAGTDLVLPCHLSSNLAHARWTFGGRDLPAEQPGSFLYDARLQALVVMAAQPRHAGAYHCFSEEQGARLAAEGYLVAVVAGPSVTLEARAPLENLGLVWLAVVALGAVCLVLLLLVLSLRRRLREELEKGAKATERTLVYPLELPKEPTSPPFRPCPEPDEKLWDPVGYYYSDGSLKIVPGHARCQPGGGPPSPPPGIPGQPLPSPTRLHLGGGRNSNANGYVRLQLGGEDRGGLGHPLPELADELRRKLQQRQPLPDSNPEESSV
UniProt Q9H0L4: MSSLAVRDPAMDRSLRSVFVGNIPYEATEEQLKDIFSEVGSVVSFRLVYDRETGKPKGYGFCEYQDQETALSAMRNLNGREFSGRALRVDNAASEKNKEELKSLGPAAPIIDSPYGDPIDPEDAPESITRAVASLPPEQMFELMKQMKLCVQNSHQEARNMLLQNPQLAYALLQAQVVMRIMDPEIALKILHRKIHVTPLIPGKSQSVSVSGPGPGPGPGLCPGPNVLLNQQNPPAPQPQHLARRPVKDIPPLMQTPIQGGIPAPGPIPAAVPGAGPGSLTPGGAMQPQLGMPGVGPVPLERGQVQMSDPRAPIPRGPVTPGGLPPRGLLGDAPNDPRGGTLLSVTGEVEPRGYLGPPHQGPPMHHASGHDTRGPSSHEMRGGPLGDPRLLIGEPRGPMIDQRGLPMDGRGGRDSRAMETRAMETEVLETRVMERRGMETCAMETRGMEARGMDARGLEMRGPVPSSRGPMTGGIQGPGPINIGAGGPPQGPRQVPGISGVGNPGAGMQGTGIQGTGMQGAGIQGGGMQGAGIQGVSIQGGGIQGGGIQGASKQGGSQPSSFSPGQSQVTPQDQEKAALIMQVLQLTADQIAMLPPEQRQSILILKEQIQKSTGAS
UniProt Q9HCS7: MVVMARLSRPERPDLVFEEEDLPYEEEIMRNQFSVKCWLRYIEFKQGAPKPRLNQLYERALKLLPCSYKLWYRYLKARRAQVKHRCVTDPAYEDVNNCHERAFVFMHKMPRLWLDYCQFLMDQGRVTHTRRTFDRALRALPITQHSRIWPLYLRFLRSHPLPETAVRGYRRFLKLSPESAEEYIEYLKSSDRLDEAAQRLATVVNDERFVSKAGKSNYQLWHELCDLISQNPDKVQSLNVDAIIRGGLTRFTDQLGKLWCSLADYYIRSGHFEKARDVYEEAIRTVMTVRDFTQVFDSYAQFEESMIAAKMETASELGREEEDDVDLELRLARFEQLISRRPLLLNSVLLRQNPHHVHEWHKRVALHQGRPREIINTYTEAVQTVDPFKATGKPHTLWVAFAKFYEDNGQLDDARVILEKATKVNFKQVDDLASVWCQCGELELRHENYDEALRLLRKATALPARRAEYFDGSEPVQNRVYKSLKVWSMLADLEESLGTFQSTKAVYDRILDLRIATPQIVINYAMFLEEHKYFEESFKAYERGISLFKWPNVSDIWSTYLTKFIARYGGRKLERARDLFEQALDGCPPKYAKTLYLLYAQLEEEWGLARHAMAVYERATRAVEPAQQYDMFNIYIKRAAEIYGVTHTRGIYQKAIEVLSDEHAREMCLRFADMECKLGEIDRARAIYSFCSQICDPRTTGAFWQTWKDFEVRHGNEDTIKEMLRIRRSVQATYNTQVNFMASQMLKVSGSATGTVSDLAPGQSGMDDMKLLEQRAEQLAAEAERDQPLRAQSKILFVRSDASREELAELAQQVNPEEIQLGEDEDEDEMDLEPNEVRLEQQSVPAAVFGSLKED
UniProt Q9H444: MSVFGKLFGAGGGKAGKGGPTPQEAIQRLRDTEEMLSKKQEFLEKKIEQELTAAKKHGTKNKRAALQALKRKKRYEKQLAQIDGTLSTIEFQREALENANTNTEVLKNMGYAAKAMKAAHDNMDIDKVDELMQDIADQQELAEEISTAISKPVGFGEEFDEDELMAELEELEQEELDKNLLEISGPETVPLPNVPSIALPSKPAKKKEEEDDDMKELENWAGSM
UniProt Q9H173: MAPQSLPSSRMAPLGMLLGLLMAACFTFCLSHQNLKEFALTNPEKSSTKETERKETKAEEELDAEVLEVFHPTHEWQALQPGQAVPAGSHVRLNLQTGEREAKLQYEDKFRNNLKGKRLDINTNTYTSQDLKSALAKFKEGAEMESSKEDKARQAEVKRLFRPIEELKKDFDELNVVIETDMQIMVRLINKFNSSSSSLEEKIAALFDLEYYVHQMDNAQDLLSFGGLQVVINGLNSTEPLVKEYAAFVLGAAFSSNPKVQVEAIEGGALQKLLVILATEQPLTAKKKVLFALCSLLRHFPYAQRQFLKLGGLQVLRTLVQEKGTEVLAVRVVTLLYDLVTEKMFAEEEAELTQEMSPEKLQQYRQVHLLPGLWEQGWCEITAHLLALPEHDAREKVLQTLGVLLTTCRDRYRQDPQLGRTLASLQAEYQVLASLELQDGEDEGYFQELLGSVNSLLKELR

Compound: Nc1ncnc2c1ncn2[C@@H]1O[C@H](COP(=O)(O)OP(=O)(O)NP(=O)(O)O)[C@@H](O)[C@H]1O [adenylyl imidodiphosphate]
Assay: NP40-soluble protein abundance relative to vehicle (solubility fold change) (ratio); higher = more soluble protein in presence of AMP-PNP
In short: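 Values are fold changes against the detergent-processed vehicle, based on vsn-normalised intensities. Jurkat crude lysate was treated at eight concentrations from 0.1 to 10 mM (10 min at room temperature, then 3 min at 37 °C), solubilised with 0.8% NP40 and benzonase, ultracentrifuged and analysed by TMT-labelled LC-MS/MS over three independent experiments.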

Target | NP40-soluble protein abundance (concentration: 0.1mM) | NP40-soluble protein abundance (concentration: 0.5mM)
UniProt Q9H0A8 and related entries | 1.01 ± 0.024 | 1.01 ± 0.031
MEGF9 (UniProt Q9H1U4) | 1 ± 0.036 | 1.06 ± 0.015
UniProt Q9H3H1 and related entries | 1.04 ± 0.08 | 1.1 ± 0.11
UniProt Q9H7D7 and related entries | 1.03 ± 0.014 | 0.963 ± 0.034
DEF6 (UniProt Q9H4E7) | 0.999 ± 0.013 | 1.01 ± 0.018
UniProt Q9H0W8 and related entries | 1.01 ± 0.013 | 1 ± 0.046
RABEP2 (UniProt Q9H5N1) | 0.998 ± 0.026 | 0.986 ± 0.064
SFXN1 (UniProt Q9H9B4) | 0.991 ± 0.022 | 0.98 ± 0.02
UniProt Q9HCM1 | 0.981 ± 0.01 | 0.981 ± 0.027
PLEKHF2 (UniProt Q9H8W4) | 0.977 ± 0.043 | 0.996 ± 0.051
VPS37B (UniProt Q9H9H4) | 1.01 ± 0.029 | 1.02 ± 0.059
CHMP1A (UniProt Q9HD42) | 1.01 ± 0.034 | 1.01 ± 0.067
UniProt Q9H857 and related entries | 1.04 ± 0.051 | 0.997 ± 0.13
KDM4C (UniProt Q9H3R0) | 1 ± 0.032 | 1 ± 0.04
DMAP1 (UniProt Q9NPF5) | 0.979 ± 0.042 | 1.02 ± 0.012
ESF1 (UniProt Q9H501) | 1.015 ± 0.002 | 1.04 ± 0.052
SEMA4C (UniProt Q9C0C4) | 0.995 ± 0.043 | 1.01 ± 0.013
WDR11 (UniProt Q9BZH6) | 1.02 ± 0.027 | 0.995 ± 0.05
CSTF2T (UniProt Q9H0L4) | 1 ± 0.041 | 0.985 ± 0.047
RPAP3 (UniProt Q9H6T3) | 0.9855 ± 0.0059 | 1 ± 0.018
XAB2 (UniProt Q9HCS7) | 1.07 ± 0.057 | 1 ± 0.044
CHMP4B (UniProt Q9H444) | 0.974 ± 0.077 | 1.05 ± 0.093
UniProt Q9H173 and related entries | 0.972 ± 0.034 | 1.016 ± 0.0031

Laid out differently: results already given.
CHMP1A (UniProt Q9HD42)
  NP40-soluble protein abundance (concentration: 0.1mM): 1.01 ± 0.034; NP40-soluble protein abundance (concentration: 0.5mM): 1.01 ± 0.067
UniProt Q9H857 and related entries
  NP40-soluble protein abundance (concentration: 0.1mM): 1.04 ± 0.051; NP40-soluble protein abundance (concentration: 0.5mM): 0.997 ± 0.13
